We go through four sequences from paper PMC9984425.

Sequences of proteins named here, by UniProt entry; tags and fusion partners are left off. A change or cut given only in a name is not applied to a line headed by its entry.
UniProt Q9H5J0: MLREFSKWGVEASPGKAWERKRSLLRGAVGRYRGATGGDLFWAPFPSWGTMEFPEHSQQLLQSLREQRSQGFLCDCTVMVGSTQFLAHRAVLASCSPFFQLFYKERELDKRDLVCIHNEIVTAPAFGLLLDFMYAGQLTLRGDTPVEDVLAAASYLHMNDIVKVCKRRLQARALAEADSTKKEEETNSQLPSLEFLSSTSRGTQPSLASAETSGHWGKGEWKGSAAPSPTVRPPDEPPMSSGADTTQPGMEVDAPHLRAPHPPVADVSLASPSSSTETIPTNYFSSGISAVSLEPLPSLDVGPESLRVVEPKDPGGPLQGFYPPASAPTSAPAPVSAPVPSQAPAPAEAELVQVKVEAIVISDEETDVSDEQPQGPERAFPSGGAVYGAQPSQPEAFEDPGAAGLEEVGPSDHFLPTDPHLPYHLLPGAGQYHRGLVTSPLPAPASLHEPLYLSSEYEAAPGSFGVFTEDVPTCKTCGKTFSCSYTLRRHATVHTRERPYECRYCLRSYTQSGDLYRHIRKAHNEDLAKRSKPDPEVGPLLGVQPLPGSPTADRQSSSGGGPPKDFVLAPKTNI

This data set has as its target ZBTB3 (SC nuclear extract, anti-ZBTB3 antibody) (Homo sapiens) (UniProt Q9H5J0). The experiment in a line: EMSA. To be noted: EMSA: 20 nM biotin probe, 100 mM Tris pH 7.5, 55 mM KCl, 2.5 mM MgCl2, 1 mM DTT, 500 ng poly(dI-dC), 5% glycerol, 0.05% NP-40, 20 ul, room temperature 20 min, protein in an extract, label: 5' biotin on strand 1. (A gel shift assay detects complexes by their altered migration in electrophoresis.)

Construct, isoform or probe ends are uncertain for at least one entry. Where cells or extracts were used, other partners may take part. A negative result means that nothing was seen under these conditions. A weaker result is weaker than the reference pair of the same experiment. At least one verdict rests on a figure or table, not on a statement of the authors.

For the sequence “CCGGGAGCCCCGCTGGAGGCTGGCTTGGA (double strand) [IRF5-promoter]”, the binding result (anti-ZBTB3 antibody) was “binds”.

Turning to “CCAAAAAGCTCTGAGCCGGTGTTAGTAAGAAATGG (double strand) [rs4728142-G]”, the binding result (anti-ZBTB3 antibody, ZBTB3 prefers allele A) is on record as “binds more weakly”.

In the case of “CCAAAAAGCTCTGAGCCAGTGTTAGTAAGAAATGG (double strand) [rs4728142-A]”, the binding result (anti-ZBTB3 antibody, preferred allele) is given as “binds”.

Consider “CCGGGAGCCCCGGGAGGCTGGCTTGGA (double strand) [IRF5-p-deltaCT]”, for which the binding result (binding lost on CT deletion) was “no binding”.
